Source: patent US11104663B2 (priority 2017, dated 2021)

O=C(O)c1cn(C2CC2)c2cc(N3CCNCC3)c(F)cc2c1=O [Ex. 2 ciprofloxacin, 1-cyclopropyl-6-fluoro-4-oxo-7-(piperazin-1-yl)-1,4-dihydroquinoline-3-carboxylic acid]
rate of dissolution in water compared with Form B and raw ciprofloxacin hydrochloride: significantly slower rate of dissolution
